According to paper PMC5395157:
Results are given in words; binding and its absence hold for the method and conditions named. Some binding calls cover weakened binding; strength is not graded here. Tags and fused reporters may be left off the sequences shown.

Target: N-terminal domain of the ferric uptake regulator (FUR) protein from E. coli, as the last domain of the TTT-FUR fusion (E. coli) (UniProt P0A9A9)
Test: crystal structure; hanging drop vapor diffusion at 17°C, 8 mg/mL protein, well 100 mM Tris pH 8.0 and 3.5 M NaCl, no cadmium; 2.3 Å, space group C2, one molecule in the asymmetric unit; both purified

B1: N-terminal domain of the ferric uptake regulator (FUR) protein from E. coli, as the last domain of the TTT-FUR fusion (domain or fragment, UniProt P0A9A9 1-83)
chain: MTDNNTALKKAGLKVTLPRLKILEVLQEPDNHHVSAEDLYKRLIDMGEEIGLATVYRVLNQFDDAGIVTRHNFEGGKSVFELT
B1 was tested, and the binding was “binds”.
